Structures are written as SMILES. The list shows a part of the results. Single values are uncertain here, since repeats match poorly.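 U2OS cells expressing ACE2 were combined with U2OS cells expressing full-length spike, and imaging quantified fusion as the fraction of nuclei displaying both cell types' fluorescent markers. Non-toxic compounds with a fusion z-score under -3, i.e., over three standard deviations below the plate's DMSO wells, are called inhibitory hits.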

The test system of the experiment is U2OS ACE2 x SARS-CoV-2 spike co-culture. The experiment is described as follows: cell-cell fusion (fraction fused) z-score vs plate DMSO control; higher = more fusion. Conditions: 30 µM; 5 h; toxicity class: non-toxic, passed QC.
As to `COc1ccc(C[C@H](N)C(=O)N[C@@H]2[C@@H](CO)OC(n3cnc4c(N(C)C)ncnc43)[C@@H]2O)cc1.Cl.Cl` (some centres undefined), the “cell-cell fusion (z-score)” value was inactive: 3.45.

For `C[C@@H]1O[C@H](C[N+](C)(C)C)C[C@H]1O.[Cl-]` (racemic) [(±)-Muscarine chloride], the “cell-cell fusion (z-score)” value was inactive: 2.13.

In the case of `COC(=O)C[C@H]1C(C)(C)[C@@H](OC(C)=O)[C@@H]2CC3C4CC(=O)O[C@@H](c5ccoc5)[C@]4(C)CCC3[C@@]1(C)C2=O` (some centres undefined), the “cell-cell fusion (z-score)” value was inactive: 2.37.

With `Nc1nc(NCCNc2ncc(-n3ccnc3)c(-c3ccc(Cl)cc3Cl)n2)ccc1[N+](=O)[O-]`, the “cell-cell fusion (z-score)” value is inactive: 1.62.

For `CCN(CC)Cc1ccc(Nc2ccnc3cc(Cl)ccc23)cc1O.Cl.Cl`, the “cell-cell fusion (z-score)” value was inactive: 0.158.

As for `C1N2CN3CN1CN(C2)C3`, the “cell-cell fusion (z-score)” value was inactive: 1.27.

For `CN(C)CCN(Cc1ccccc1)c1ccccn1.O=C(O)CC(O)(CC(=O)O)C(=O)O`, the “cell-cell fusion (z-score)” value is inactive: -1.85.

Consider `CC(C)(C)c1cnc(CSc2cnc(NC(=O)C3CCNCC3)s2)o1`, for which the “cell-cell fusion (z-score)” value is inactive: 1.57.

Turning to `O=C(O)C1CCCNC1` (centres undefined), the “cell-cell fusion (z-score)” value is inactive: -0.254.

In the case of `CCC(C)CCCCC(=O)NC(CCN)C(=O)NC(C(=O)NC(CCN)C(=O)NC1CCNC(=O)C(C(C)O)NC(=O)C(CCN)NC(=O)C(CCN)NC(=O)C(CC(C)C)NC(=O)C(Cc2ccccc2)NC(=O)C(CCN)NC1=O)C(C)O.O=S(=O)(O)O` (centres undefined), the “cell-cell fusion (z-score)” value is inactive: -0.127.

Turning to `CC(C)C(=O)Nc1ccc([N+](=O)[O-])c(C(F)(F)F)c1` [Flutamide], the “cell-cell fusion (z-score)” value was inactive: 2.11.

For `Oc1nc2cc(Cl)c(Cl)cc2nc1O`, the “cell-cell fusion (z-score)” value is inactive: 1.25.

As to `CC(C)(C(=O)O)c1ccc(C(O)CCCN2CCC(C(O)(c3ccccc3)c3ccccc3)CC2)cc1.Cl` (centres undefined) [Fexofenadine hydrochloride], the “cell-cell fusion (z-score)” value is inactive: 3.17.

`CCCC1O[C@@H]2CC3C4CCC5=CC(=O)C=CC5(C)C4[C@@H](O)CC3(C)[C@]2(C(=O)CO)O1` (some centres undefined): the “cell-cell fusion (z-score)” value was inactive: -1.78.

For `CN1CCc2nc(C(=O)N[C@@H]3C[C@@H](C(=O)N(C)C)CC[C@@H]3NC(=O)C(=O)Nc3ccc(Cl)cn3)sc2C1` [Edoxaban], the “cell-cell fusion (z-score)” value is inactive: 1.6.

For `CN1CC[C@@]2(C)c3cc(O)ccc3N(C)C12.O=C(O)/C=C\C(=O)O` (single isomer, unassigned; (-)) [(-)-Eseroline fumarate], the “cell-cell fusion (z-score)” value is inactive: 1.21.

Turning to `C#C[C@]1(O)CCC2C3CCC4=CC(=O)CC[C@@H]4C3CC[C@@]21C` (some centres undefined), the “cell-cell fusion (z-score)” value is inactive: 0.612.

For the compound `CC(CCc1ccc(O)cc1)NCC(O)c1ccc(O)cc1.Cl` (centres undefined), the “cell-cell fusion (z-score)” value is inactive: 2.65.

Turning to `CC1(C)C(=O)CC[C@@]2(C)C1C[C@@H](O)[C@@]1(C)C3=CC(=O)O[C@@H](c4ccoc4)[C@]3(C)CCC21` (some centres undefined), the “cell-cell fusion (z-score)” value was inactive: 1.87.

For `C=CCc1ccc(OC)cc1`, the “cell-cell fusion (z-score)” value was inactive: 1.61.

Regarding `CO[C@@]1(NC(=O)Cc2cccs2)C(=O)N2C(C(=O)[O-])=C(COC(N)=O)CS[C@@H]21.[Na+]` [Cefoxitin sodium], the “cell-cell fusion (z-score)” value was inactive: 0.352.

As for `O=c1cc(-c2ccccc2)oc2cc(O)ccc12`, the “cell-cell fusion (z-score)” value was inactive: 1.98.

Turning to `Cc1cc(=O)oc2cc(O)ccc12`, the “cell-cell fusion (z-score)” value was inactive: 3.62.

For the compound `CN(C)CCc1c[nH]c2ccc(Cn3cncn3)cc12.O=C(O)c1ccccc1` [Rizatriptan benzoate], the “cell-cell fusion (z-score)” value is inactive: 2.01.

Consider `CCC[C@@H]1C[C@@H](C(=O)N[C@@H]([C@H]2O[C@H](SC)[C@H](O)[C@@H](O)[C@H]2O)[C@@H](C)O)N(C)C1.Cl` [Lincomycin hydrochloride], for which the “cell-cell fusion (z-score)” value was inactive: 3.09.

As for `CCCCC/C=C\C/C=C\C/C=C\C/C=C\CCCC(=O)O`, the “cell-cell fusion (z-score)” value was inactive: 2.49.

On to `NC(=O)c1cc[n+](CC2=C(C(=O)[O-])N3C(=O)C(NC(=O)C(c4ccccc4)S(=O)(=O)[O-])C3SC2)cc1.[Na+]` (centres undefined), for which the “cell-cell fusion (z-score)” value is inactive: -0.746.

Turning to `Cc1c(O)c(=O)n(-c2ccccc2)n1C`, the “cell-cell fusion (z-score)” value is inactive: 3.78.

As to `C/C(=C\c1ccc(C(=O)O)cc1)c1ccc2c(c1)C(C)(C)CCC2(C)C`, the “cell-cell fusion (z-score)” value is inactive: 0.657.

As for `Cc1cccc(C)c1NC(=O)C1CCCCN1C.Cl` (centres undefined) [Mepivacaine hydrochloride], the “cell-cell fusion (z-score)” value was inactive: 2.4.

For the compound `CCc1ccc(CCOc2ccc(CC3SC(=O)NC3=O)cc2)nc1.Cl` (centres undefined), the “cell-cell fusion (z-score)” value is inactive: 1.95.

On to `N=S(=O)([O-])Cc1noc2ccccc12.[Na+]` [Zonisamide sodium], for which the “cell-cell fusion (z-score)” value is inactive: 1.01.

`Cc1cc(C)nc([N-]S(=O)(=O)c2ccc(N)cc2)n1.[Na+]` [Sulfamethazine sodium salt]: the “cell-cell fusion (z-score)” value was inactive: 2.46.

As to `Cc1cccc(-c2nn3c(c2-c2ccnc4ccc(C(N)=O)cc24)CCC3)n1`, the “cell-cell fusion (z-score)” value is inactive: -0.315.

On to `CC(=O)O[C@@H]1CC2C(C)(C)C(=O)C=C[C@]2(C)C2CC[C@@]3(C)[C@H](c4ccoc4)OC(=O)[C@H]4O[C@]43[C@@]21C` (some centres undefined), for which the “cell-cell fusion (z-score)” value was inactive: 2.3.

As to `Cl.NOCC(=O)O.NOCC(=O)O` [O-(Carboxymethyl)hydroxylamine hemihydrochloride], the “cell-cell fusion (z-score)” value is inactive: 2.37.

On to `CC(C)(CO)[C@@H](O)C(=O)NCCCO`, for which the “cell-cell fusion (z-score)” value was inactive: 2.3.

For `CC(=O)CC(=O)CCC(=O)O`, the “cell-cell fusion (z-score)” value is inactive: 2.46.

As to `CCCCCc1ccc(/C=C/C(=O)Nc2cc(Cl)ccc2C(=O)O)cc1`, the “cell-cell fusion (z-score)” value was inactive: 1.75.

`CC[C@H](/C=C/C(C)C1CCC2C3CCC4=CC(=O)CC[C@]4(C)C3CC[C@]12C)C(C)C` (some centres undefined): the “cell-cell fusion (z-score)” value is inactive: 2.07.

Consider `CN(Cc1ccc(C(C)(C)C)cc1)Cc1cccc2ccccc12.Cl` [Butenafine hydrochloride], for which the “cell-cell fusion (z-score)” value was inactive: 1.36.

With `CC(C(O)c1ccc(O)cc1)N1CCC(Cc2ccccc2)CC1.O=C(O)[C@H](O)[C@@H](O)C(=O)O` (centres undefined), the “cell-cell fusion (z-score)” value is inactive: 1.67.

As for `N[C@H](CCCP(=O)(O)O)C(=O)O` [D(-)-2-Amino-5-phosphonopentanoic acid], the “cell-cell fusion (z-score)” value is inactive: 2.2.

Turning to `Nc1nc2ccc(Cl)cc2c2nc(-c3ccco3)nn12`, the “cell-cell fusion (z-score)” value is inactive: 0.927.

Turning to `CC(=O)Oc1ccccc1C(=O)Oc1ccccc1C(=O)O`, the “cell-cell fusion (z-score)” value is inactive: 3.41.

Turning to `O=P(O)(O)OC(Cn1cncn1)(Cn1cncn1)c1ccc(F)cc1F` [Fosfluconazole], the “cell-cell fusion (z-score)” value is inactive: 2.94.

Consider `CN[C@H](CC(C)C)C(=O)N[C@H]1C(=O)N[C@@H](CC(N)=O)C(=O)N[C@H]2C(=O)N[C@H]3C(=O)N[C@H](C(=O)N[C@H](C(=O)O)c4cc(O)cc(O)c4-c4cc3ccc4O)[C@H](O)c3ccc(c(Cl)c3)Oc3cc2cc(c3O[C@@H]2O[C@H](CO)[C@@H](O)[C@H](O)[C@H]2O[C@H]2C[C@](C)(N)[C@H](O)[C@H](C)O2)Oc2ccc(cc2Cl)[C@H]1O.Cl` [Vancomycin hydrochloride from Streptomyces orientalis], for which the “cell-cell fusion (z-score)” value is inactive: 2.56.

As for `Nc1ccccc1NC(=O)c1ccc(CNC(=O)OCc2cccnc2)cc1` [Entinostat (MS-275, SNDX-275)], the “cell-cell fusion (z-score)” value is inactive: 1.66.

In the case of `C/C=C/C(=O)N(CC)c1ccccc1C` [Crotamiton], the “cell-cell fusion (z-score)” value is inactive: 3.64.

Consider `CC(C)c1onc(-c2c(Cl)cccc2Cl)c1COc1ccc(/C=C/c2cccc(C(=O)O)c2)c(Cl)c1`, for which the “cell-cell fusion (z-score)” value was inactive: 2.04.

With `O=S(=O)([O-])CCS.[Na+]`, the “cell-cell fusion (z-score)” value is inactive: 3.64.

As for `O=S(=O)([O-])CCS.[Na+]` [Mesna], the “cell-cell fusion (z-score)” value was inactive: 3.95.

Take `CC1COc2c(N3CCN(C)CC3)c(F)cc3c(=O)c(C(=O)O)cn1c23` (centres undefined) [Ofloxacin]: the “cell-cell fusion (z-score)” value is inactive: 2.63.

As to `CC(=O)OCC(=O)[C@@]1(O)CC[C@H]2[C@@H]3CCC4=CC(=O)CC[C@]4(C)[C@@]3(F)[C@@H](O)C[C@@]21C` [Fludrocortisone acetate], the “cell-cell fusion (z-score)” value is inactive: -1.4.

On to `C=C(C)[C@H]1Cc2c(ccc3c2O[C@@H]2COc4cc(OC)c(OC)cc4[C@@H]2C3=O)O1`, for which the “cell-cell fusion (z-score)” value is inactive: 1.04.

As to `CN1c2c(nc(N)[nH]c2=O)NCC1CNc1ccc(C(=O)NC(CCC(=O)[O-])C(=O)[O-])cc1.[Ca+2]` (centres undefined) [Levomefolate calcium], the “cell-cell fusion (z-score)” value is inactive: 4.11.

As for `CC(C)[N+]1(C)C2CCC1CC(C(=O)OC(CO)c1ccccc1)C2.[Br-]` (centres undefined) [Ipratropium bromide], the “cell-cell fusion (z-score)” value is inactive: 2.02.

Take `COc1cc2nc(N(C)CCCNC(=O)C3CCCO3)nc(N)c2cc1OC.Cl` (centres undefined) [Alfuzosin hydrochloride]: the “cell-cell fusion (z-score)” value is inactive: 1.2.

`N[C@@H](CCCC(=O)O)C(=O)O` [L-2-aminoadipic acid]: the “cell-cell fusion (z-score)” value is inactive: 2.49.

With `C=C1CC2C3C=C(C)C4=CC(=O)CC[C@]4(C)C3CC[C@]2(C)[C@@]1(OC(C)=O)C(C)=O` (some centres undefined), the “cell-cell fusion (z-score)” value is inactive: 2.46.

Consider `CC(=O)OC1CC[C@@]2(C)C(CCC3C2CC[C@]2(C)C(C4=CC(=O)OC4)C(OC(C)=O)CC32O)C1` (some centres undefined), for which the “cell-cell fusion (z-score)” value was inactive: 1.27.

`Cl.OC(CCN1CCCCC1)(c1ccccc1)C1CC2C=CC1C2` (centres undefined) [Biperiden hydrochloride]: the “cell-cell fusion (z-score)” value was inactive: 0.529.

Regarding `CC(C)(C#N)c1cc(Cn2cncn2)cc(C(C)(C)C#N)c1` [Anastrozole], the “cell-cell fusion (z-score)” value is inactive: 1.07.

For `CC1=C(C)C(=O)C(CCCCC#CCCCC#CCO)=C(C)C1=O`, the “cell-cell fusion (z-score)” value was inactive: 2.36.

With `Cc1occc(=O)c1O`, the “cell-cell fusion (z-score)” value is inactive: 1.94.

For the compound `O=C([O-])Cc1ccccc1Nc1c(Cl)cccc1Cl.[Na+]`, the “cell-cell fusion (z-score)” value is inactive: 0.99.

As to `COc1ccccc1-c1coc2cc(O)ccc2c1=O`, the “cell-cell fusion (z-score)” value was inactive: 1.93.

Regarding `CCN1C(=O)NC(c2ccccc2)C1=O` (centres undefined), the “cell-cell fusion (z-score)” value is inactive: 3.48.

Regarding `C[C@@H]1O[C@@H](O[C@H]2C[C@@H](O)[C@]3(CO)[C@H]4[C@H](O)C[C@]5(C)[C@@H](C6=CC(=O)OC6)CC[C@]5(O)[C@@H]4CC[C@]3(O)C2)[C@H](O)[C@H](O)[C@H]1O` [Ouabain], the “cell-cell fusion (z-score)” value is inactive: 1.41.
